Source: the supplement of paper PMC5662767
Where a name gives a salt, the structure may show the parent alone. The list shows a part of the results. Part of the spread comes from offsets between plates or batches.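 The clonal Drosophila S2 line carries Smoothened with a circularly permuted GFP inserted in its cytoplasmic tail, which fluoresces once Hh-driven phosphorylation opens an inhibitory loop. Per-cell fluorescence was read by flow cytometry, scaled to Hh-stimulated untreated cells. Hits were groups of inhibitors sharing pathway targets that shifted fluorescence consistently, not single compounds.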

System: Drosophila S2 cl14 SmoIP sensor cells
Assay: normalized SmoIP GFP fluorescence (untreated unstimulated = 0%, untreated Hh-stimulated = 100%); higher = more Smo activation sensor fluorescence
Details: compound concentration: 15 uM, 24 h
[1] = stimulation: Hh conditioned medium (+Hh)
[2] = stimulation: mock conditioned medium (-Hh)

SMILES | normalized SmoIP GFP fluorescence [1] | normalized SmoIP GFP fluorescence [2]
O=C(NCc1cccc(O)c1)Nc1nc(-c2ccncc2)cs1 | 116% | -0.491%
C=CCc1ccc(O)c(-c2ccc(O)c(CC=C)c2)c1 [Honokiol] | 132% | 6.1%
Nc1cccc(-c2cc3c(Oc4cccc(O)c4)ncnc3[nH]2)c1 | 125% | 32%
CCCc1cc(C)[nH]c(=O)c1CNC(=O)c1cc(-c2ccc(N3CCN(C(C)C)CC3)nc2)cc2c1cnn2C(C)C | 193% | 74.7%
CC(C)N(CCCNC(=O)Nc1ccc(C(C)(C)C)cc1)C[C@H]1O[C@@H](n2cc(Br)c3c(N)ncnc32)[C@H](O)[C@@H]1O | 184% | 56%
NC(=O)Nc1sc(-c2ccc(F)cc2)cc1C(N)=O [tpca-1] | 167% | 19.3%
CCOc1ccn(-c2ccc(F)cc2)c(=O)c1C(=O)Nc1ccc(Oc2ccnc(N)c2Cl)c(F)c1 | 53.5% | -6.51%
c1ccc(CC2=NCCN2)cc1 [tolazoline-hcl] | 109% | -4.01%
O=C1C[C@@H](c2ccc(O)cc2)Oc2cc(O)cc(O)c21 [Naringenin] | 116% | -7.6%
COC(=O)C1=C(C#N)NC(C)=C(C(=O)OC(C)C)C1c1cccc([N+](=O)[O-])c1 (stereo unspecified) [nilvadipine-arc029] | 191% | 7.46%
COC[C@H](NC(=O)c1cnc(C)s1)C(=O)N[C@@H](COC)C(=O)N[C@@H](Cc1ccccc1)C(=O)[C@@]1(C)CO1 [oprozomib-onx-0912] | 86.4% | 39.5%
COc1ccc(S(=O)(=O)N(C(C)=O)c2ccccc2/C=C/c2cc[n+]([O-])cc2)cc1 | 130% | 42.6%
OC(CN1CCN(c2cccc(Cl)c2)CC1)C(c1ccccc1)c1ccccc1 (stereo unspecified) | 135% | 9.08%
Nc1nc(N)c2nc(-c3cccc(O)c3)cnc2n1 | 103% | -4.92%
CNC(=O)Nc1ccc(-c2nc(N3CC4CCC(C3)O4)c3cnn(C4CCC5(CC4)OCCO5)c3n2)cc1 | 114% | 8.43%
OC(CCN1CCCCC1)(c1ccccc1)C1CC2C=CC1C2 (stereo unspecified) [Biperiden-hydrochloride] | 141% | 12.4%
CC(C)C[C@@H](C(=O)N[C@H](C(=O)OC1CCCC1)c1ccccc1)[C@H](O)C(=O)NO [CHR-2797(Tosedostat)] | 142% | 13.3%

SMILES | normalized SmoIP GFP fluorescence [1] | normalized SmoIP GFP fluorescence [2]
Cc1c(Cl)cccc1Nc1ccccc1C(=O)O [tolfenamic-acid] | 109% | -7.78%
Cc1ccc(S(=O)(=O)NC(=O)NN2CC3CCCC3C2)cc1 (stereo unspecified) [gliclazide-diamicron] | 115% | -11.6%
CCn1c(-c2nonc2N)nc2c(C#CC(C)(C)O)ncc(OC[C@H]3CCCNC3)c21 | 95.2% | -5.22%
CC(=O)c1cc([N+](=O)[O-])c(Sc2cccc(Cl)c2Cl)s1 | -63.1% | 18.6%
O=C(/C=C\n1cnc(-c2cc(C(F)(F)F)cc(C(F)(F)F)c2)n1)NNc1cnccn1 | 162% | 48.6%
CNC(=O)[C@H](Cc1ccccc1)NC(=O)[C@H](CC(C)C)[C@H](CSc1cccs1)C(=O)NO | 123% | 0.0767%
CN(C)C(=O)c1ccc(S(=O)(=O)c2ccc(NC(=O)[C@@](C)(O)C(F)(F)F)c(Cl)c2)cc1 | 164% | 23.8%
O=C(O)CCCN1CCC(O[C@@H](c2ccc(Cl)cc2)c2ccccn2)CC1 [bepotastine-besilate] | 117% | -2.93%
OCCn1cc(-c2ccc3c(c2)CC/C3=N\O)c(-c2ccncc2)n1 | 137% | 9.32%
CCc1cncnc1N1CCN(Cc2nc3ccc(C(F)(F)F)cc3[nH]2)CC1 | 130% | 64.6%
CNC(=O)c1cccc(-c2ccc3c(N4CCOC[C@@H]4C)nc(N4CCOC[C@@H]4C)nc3n2)c1 | 171% | 39.5%
CN1CCC(NC(=O)c2cc(-c3c(O)cc(O)cc3Oc3ccc([N+](=O)[O-])cc3)on2)CC1 | 197% | 34.8%
CN(C)CC(c1ccc(O)cc1)C1(O)CCCCC1 (stereo unspecified) [desvenlafaxine-succinate] | 111% | -6.85%
O=C(CSc1nc2c(c(=O)n1-c1ccccc1)SCC2)Nc1ccc(-c2ccccc2)cn1 | 138% | 46.9%
O=C(O)COCCN1CCN(C(c2ccccc2)c2ccc(Cl)cc2)CC1 (stereo unspecified) [Cetirizine-di-hcl] | 131% | 5.12%
CC(C)c1cnn2c(NCc3ccccc3)cc(NCCCCCCN)nc12 | 152% | 91.6%

Gathered by group: the entries above with fluorine
SMILES | normalized SmoIP GFP fluorescence [1] | normalized SmoIP GFP fluorescence [2]
NC(=O)Nc1sc(-c2ccc(F)cc2)cc1C(N)=O [tpca-1] | 167% | 19.3%
CCOc1ccn(-c2ccc(F)cc2)c(=O)c1C(=O)Nc1ccc(Oc2ccnc(N)c2Cl)c(F)c1 | 53.5% | -6.51%
O=C(/C=C\n1cnc(-c2cc(C(F)(F)F)cc(C(F)(F)F)c2)n1)NNc1cnccn1 | 162% | 48.6%
CN(C)C(=O)c1ccc(S(=O)(=O)c2ccc(NC(=O)[C@@](C)(O)C(F)(F)F)c(Cl)c2)cc1 | 164% | 23.8%
CCc1cncnc1N1CCN(Cc2nc3ccc(C(F)(F)F)cc3[nH]2)CC1 | 130% | 64.6%
